Results reported in PubChem BioAssay AID256 (DTP/NCI, 2004).
The list is a part of this screen's results and no random one: it is rich in T/C values a quarter to a half above the control, in often repeated tests (any T/C) and in doses without a T/C. Further doses and runs are listed elsewhere. T/C is the treated group as % of the vehicle group. Some doses have a count of surviving animals in place of a T/C: the source holds a T/C of zero for them, seemingly a mark for toxic or unscored doses. Some doses without a T/C left all or most animals alive at the check, yet need not have been tolerated: the source hardly ever lists a survival T/C far under the control, and the zero likely stands for such cases as well. Survivors were counted at the toxicity check, usually on the fifth day, unless a day is given; later deaths do not show. Schedule codes are those of the source, taken here to give the interval after Q, in days (D) or hours (H), and the number of doses after X. Some entries hold several experiments; the values are given in rising order. Some schedule codes hold Z or #, which are not explained here. For survival time, the PubChem record calls one and a half times the control and up active, and a quarter to a half above the control has no call in these data; cut-offs in other NCI protocols can differ.

Test system: CD2F1 mice, L1210 leukemia ip, survival T/C
Assay: NCI In Vivo Anticancer Drug Screen. Data for tumor model L1210 Leukemia (intraperitoneal) in CD2F1 (CDF1) mice
Details: T/C endpoint: mean survival time, higher T/C = longer survival
Method in brief: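 Activity against a transplanted murine tumor was judged by comparing the compound group with a vehicle group. The outcome in the treated animals was divided by that in the controls.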

[1] = dose: 400.0 mg/kg/injection, schedule: Q01DX009 (ip), vehicle: saline with Tween-80
[2] = dose: 200.0 mg/kg/injection, schedule: Q01DX009 (ip), vehicle: saline with Tween-80

For `Cc1cc(N(CCCOS(C)(=O)=O)CCCOS(C)(=O)=O)ccc1C=Nc1ccc(-c2csc(COc3ccccc3)n2)cc1`, the survivor count [1] was 6 of 6.
With `CCCCN(CCCC)CCCN1C(=O)c2ccccc2C1=O` the survivor count (dose: 7.5 mg/kg/injection, schedule: Q01DX009 (ip), vehicle: saline) was 6 of 6, the survivor count (dose: 60.0 mg/kg/injection, schedule: Q01DX009 (ip), vehicle: saline) was 3 of 6 and the survivor count (dose: 120.0 mg/kg/injection, schedule: Q01DX009 (ip), vehicle: saline) was 0 of 6.
`CC(=O)NNC(=O)c1ccccn1` was tested, and the survivor count (dose: 100.0 mg/kg/injection, schedule: Q#A X018 (ip), vehicle: water) was 1 of 6, the survivor count (dose: 200.0 mg/kg/injection, schedule: Q01DX009 (ip), vehicle: saline) was 6 of 10 and the survivor count (dose: 200.0 mg/kg/injection, schedule: Q01DX009 (ip), vehicle: water) was 2 of 6. The survivor count (dose: 200.0 mg/kg/injection, schedule: Q#A X018 (ip), vehicle: water) was 0 of 6, the survivor count (dose: 300.0 mg/kg/injection, schedule: Q#A X018 (ip), vehicle: water) was 0 of 6 and the survivor count (dose: 400.0 mg/kg/injection, schedule: Q01DX001 (ip), vehicle: water) was 0 of 6. For the same compound, the survivor count (dose: 400.0 mg/kg/injection, schedule: Q01DX009 (ip), vehicle: water) was 0 of 6, the survivor count (dose: 400.0 mg/kg/injection, schedule: Q01DX009 (sc), vehicle: water) was 0 of 6 and the survivor count (dose: 600.0 mg/kg/injection, schedule: Q01DX001 (ip), vehicle: water) was 0 of 6. For the same compound, the survivor count (dose: 600.0 mg/kg/injection, schedule: Q01DX009 (ip), vehicle: water) was 0 of 6 and the survivor count (dose: 600.0 mg/kg/injection, schedule: Q01DX009 (sc), vehicle: water) was 0 of 6.
For `CC(=O)OC(Cc1nc2ccccc2s1)(C(F)(F)F)C(F)(F)F`, the survivor count (dose: 25.0 mg/kg/injection, schedule: Q04DX002 (ip), vehicle: saline with Tween-80) was 1 of 3, the survivor count (dose: 50.0 mg/kg/injection, schedule: Q04DX002 (ip), vehicle: saline with Tween-80) was 0 of 3 and the survivor count (dose: 100.0 mg/kg/injection, schedule: Q01DX009 (ip), vehicle: saline with Tween-80) was 0 of 6. For the same compound, the survivor count (dose: 100.0 mg/kg/injection, schedule: Q04DX002 (ip), vehicle: saline with Tween-80) was 0 of 3, the survivor count [2] was 0 of 6 and the survivor count (dose: 200.0 mg/kg/injection, schedule: Q04DX002 (ip), vehicle: saline with Tween-80) was 0 of 3. For the same compound, the survivor count [1] was 0 of 6 and the survivor count (dose: 400.0 mg/kg/injection, schedule: Q04DX002 (ip), vehicle: saline with Tween-80) was 0 of 3.
In the case of `O=C(O)/C=C/C(=O)Nc1ccc(Cl)c(Cl)c1`, the T/C (dose: 25.0 mg/kg/injection, schedule: Q01DX009 (ip), vehicle: Klucel (hydroxypropylcellulose) (HPC)) is reported as 125 % of control, the survivor count (dose: 200.0 mg/kg/injection, schedule: Q01DX009 (ip), vehicle: Klucel (hydroxypropylcellulose) (HPC)) is reported as 5 of 6 and 6 of 6 and the survivor count (dose: 400.0 mg/kg/injection, schedule: Q01DX009 (ip), vehicle: Klucel (hydroxypropylcellulose) (HPC)) is reported as 0 of 6.
For `CN(Cc1cnc2nc(N)nc(N)c2n1)c1ccc(C(=O)NC(CCC(=O)NC(CC(=O)O)C(=O)O)C(=O)O)cc1` (stereo unspecified), the T/C (dose: 1.0 mg/kg/injection, schedule: Q01DX009 (ip), vehicle: sodium bicarbonate) was 130 % of control, the T/C (dose: 2.0 mg/kg/injection, schedule: Q01DX009 (ip), vehicle: sodium bicarbonate) was 137 % of control and the survivor count (dose: 25.0 mg/kg/injection, schedule: Q01DX009 (ip), vehicle: sodium bicarbonate) was 6 of 6. The survivor count (dose: 50.0 mg/kg/injection, schedule: Q01DX009 (ip), vehicle: sodium bicarbonate) was 5 of 6.
`O=C(CCCCCCCCC(=O)N/N=C\c1ccccc1O)N/N=C\c1ccccc1O` was tested, and the survivor count (dose: 25.0 mg/kg/injection, schedule: Q01DX009 (ip), vehicle: saline with Tween-80) was 6 of 6 and the survivor count (dose: 50.0 mg/kg/injection, schedule: Q01DX009 (ip), vehicle: saline with Tween-80) was 6 of 6.
For `O=C(/C=C\c1ccc(NCc2ccc(C(=O)O)cc2)cc1)CCl`, the survivor count (dose: 100.0 mg/kg/injection, schedule: Q04DX003 (ip), vehicle: saline with Tween-80) was 6 of 6, the survivor count [2] was 0 of 6 and the survivor count [1] was 0 of 6.
With `CN1CCCC(OC(=O)N(C)C)C1` (stereo unspecified) the survivor count (dose: 400.0 mg/kg/injection, schedule: Q01DX009 (ip), vehicle: saline) was 3 of 6.
